Measured values published in article PMC4260750.

The chains behind the UniProt entries cited, without tags or fusion partners. Where a name states a change or a piece, a line headed by the entry shows the natural chain unless it says otherwise.
UniProt O35598: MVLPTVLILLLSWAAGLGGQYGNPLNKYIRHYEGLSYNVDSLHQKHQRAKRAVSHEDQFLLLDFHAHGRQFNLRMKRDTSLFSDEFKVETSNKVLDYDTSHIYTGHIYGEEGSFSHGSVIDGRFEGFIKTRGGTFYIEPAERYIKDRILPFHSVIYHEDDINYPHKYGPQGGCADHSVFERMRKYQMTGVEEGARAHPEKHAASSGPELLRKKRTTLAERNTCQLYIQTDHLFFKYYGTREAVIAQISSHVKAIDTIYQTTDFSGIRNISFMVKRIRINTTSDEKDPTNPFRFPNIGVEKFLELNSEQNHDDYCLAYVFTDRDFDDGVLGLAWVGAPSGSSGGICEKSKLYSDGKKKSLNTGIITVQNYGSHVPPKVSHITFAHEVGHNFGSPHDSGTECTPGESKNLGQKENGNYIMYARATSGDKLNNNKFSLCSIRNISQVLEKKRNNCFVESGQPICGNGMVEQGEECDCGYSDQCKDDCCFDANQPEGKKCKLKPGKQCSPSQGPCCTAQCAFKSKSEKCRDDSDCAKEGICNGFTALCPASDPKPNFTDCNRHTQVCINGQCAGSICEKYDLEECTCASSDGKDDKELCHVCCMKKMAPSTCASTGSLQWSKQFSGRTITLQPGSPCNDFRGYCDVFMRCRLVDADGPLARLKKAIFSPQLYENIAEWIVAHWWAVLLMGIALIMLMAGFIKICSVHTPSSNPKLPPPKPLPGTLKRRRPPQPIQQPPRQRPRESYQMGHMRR
UniProt Q10743: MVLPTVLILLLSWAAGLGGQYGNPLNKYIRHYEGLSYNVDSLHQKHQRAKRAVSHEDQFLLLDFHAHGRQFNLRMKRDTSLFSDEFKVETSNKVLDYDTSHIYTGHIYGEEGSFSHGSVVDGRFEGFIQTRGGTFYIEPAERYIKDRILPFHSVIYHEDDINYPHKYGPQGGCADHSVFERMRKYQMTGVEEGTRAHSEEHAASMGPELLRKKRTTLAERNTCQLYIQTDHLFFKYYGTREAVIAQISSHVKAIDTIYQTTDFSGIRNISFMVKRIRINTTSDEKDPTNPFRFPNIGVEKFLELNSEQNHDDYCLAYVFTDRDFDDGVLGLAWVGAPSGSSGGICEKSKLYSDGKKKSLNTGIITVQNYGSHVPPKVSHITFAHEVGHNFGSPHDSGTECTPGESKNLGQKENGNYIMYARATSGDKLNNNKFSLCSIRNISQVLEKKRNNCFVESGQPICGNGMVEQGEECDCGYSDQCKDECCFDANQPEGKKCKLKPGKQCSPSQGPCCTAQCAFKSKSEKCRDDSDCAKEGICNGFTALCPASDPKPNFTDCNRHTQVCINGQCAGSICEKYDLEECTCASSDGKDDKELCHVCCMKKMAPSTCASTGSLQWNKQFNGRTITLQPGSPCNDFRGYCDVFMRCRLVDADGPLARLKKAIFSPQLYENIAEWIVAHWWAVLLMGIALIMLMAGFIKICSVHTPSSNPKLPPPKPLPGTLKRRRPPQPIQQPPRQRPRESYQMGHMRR

Columns and labels:
ADAM10-Rluc = ADAM10-Rluc (UniProt O35598); assay: FRET or BRET; BRET in living HEK293 cells; constant ADAM10-Rluc (donor), rising YFP-SAP97 (acceptor), saturation curve; also real-time BRET after PMA (PKC activator)
GST-SAP97-SH3 = GST-SAP97-SH3 (UniProt Q62696); assay: pull-down; GST fusion proteins on beads, phosphorylated or not by PKC in vitro, incubated 2 h with rat homogenate diluted in TBS; five washes with TBS and 0.1% Triton X-100; immunoblot; only the target purified
[1] = biological target: GST-SAP97-SH3 phosphorylated by PKC (UniProt Q62696); assay: as above
GST-SAP97wt = GST-SAP97wt (UniProt Q62696); assay: as above
GST-SAP97-T629A = GST-SAP97-T629A (UniProt Q62696); assay: as above
GST-SAP97-S642A = GST-SAP97-S642A (UniProt Q62696); assay: as above

Measured: binding

YFP-SAP97 (from UniProt Q62696 1-911)
binds: ADAM10-Rluc

ADAM10 (endogenous, rat brain) (from UniProt Q10743)
not listed: ADAM10-Rluc
binds: all other assays above

These are yes or no findings as the source states them, for the method shown. Binding seen in cells or lysates may run through a third protein. Binding calls can cover weak binding; strength is not graded here.
